Assay results reported in patent US7514534.
Results are given in words; binding and its absence hold for the method and conditions named. Some binding calls cover weakened binding; strength is not graded here.

Amino acid sequences for entries named in this document (tags omitted). A change or cut given only in a name is not applied to a line headed by its entry.
UniProt Q9NRE1: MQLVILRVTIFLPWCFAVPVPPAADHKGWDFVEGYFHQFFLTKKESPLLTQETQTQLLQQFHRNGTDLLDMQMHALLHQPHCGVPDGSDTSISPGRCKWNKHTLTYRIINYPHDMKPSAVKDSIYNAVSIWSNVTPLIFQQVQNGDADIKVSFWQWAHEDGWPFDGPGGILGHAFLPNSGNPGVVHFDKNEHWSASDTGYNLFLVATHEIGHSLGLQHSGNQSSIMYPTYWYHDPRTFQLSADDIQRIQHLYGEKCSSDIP

Target: MMP-26 catalytic domain, tagged with hexa-histidine (human) (UniProt Q9NRE1)
Assay: MMP cross reactivity ELISA, IgG4 at 2 µg/ml

Row | binding | Binder
1 | binds | H6-orig (antibody, human IgG4, V domains shown) VH: EVQLLESGGGLVQPGGSLRLSCAASGFTFSQYWMNWVRQAPGKGLEWVSGIGPSGGITYYADSVKGRFTISRDNSKNTLYLQMNSLRAEDTAVYYCARGEEDGYNSDYWGQGTLVTVSS VL: QSELTQPPSASGSPGQSVTISCTGTSSDVGAYNYVSWYQQHPGKAPKLIIYEVNKRPSGVPDRFSASKSGNTASLTVSGLQAEDEADYYCNSYAGSNSLIFGGGTKLTVLG
2 | binds | A01 (antibody, human IgG4, V domains shown) VH: EVQLLESGGGLVQPGGSLRLSCAASGFTFSAYNMFWVRQAPGKGLEWVSGIGSSGGIAPYADSVKGRFTISRDNSKNTLYLQMNSLRAEDTAVYYCARAAYEVENWFDPWGQGTLVTVSS VL: DIQMTQSPGTLSLSPGERATLSCRASQIVRSTYLAWYQQKPGQAPRLLIYGTSSRATGVPDRFSGSGSGTDFTLTISGLEPEDFALYYCQRYGDSPPITFGQGTRLEITR
3 | binds | A03 (antibody, human IgG4, V domains shown) VH: EVQLLESGGGLVQPGGSLRLSCAASGFTFSIYSMDWVRQAPGKGLEWVSSIYSSGGATRYADSVKGRFTISRDNSKNTLYLQMNSLRAEDTAVYYCARCSWLQLVPMHPWGQGTLVTVSS VL: QSALTQPPSASGTPGQRVTISCSGGSSNIGSNFVYWYRQLPGTAPKLLIYRNYQRPSGVPDRFSGSKSGTSASLAISGLLSEDEADYYCAAWDDNVGGVFGSGTKVTVLG
4 | binds | A04 (antibody, human IgG4, V domains shown) VH: EVQLLESGGGLVQPGGSLRLSCAASGFTFSEYNMAWVRQAPGKGLEWVSRIGSSGGKTKYADSVKGRFTISRDNSKNTLYLQMNSLRAEDTAVYYCARDEAPDYGDDAEAFDIWGQGTMVTVSS VL: QSALTQPPSASGTPGQRVTISCSGGYSNMGSNYAHWYQQVPGTAPKLLIYNNNQRPSGVPDRFSGSKSGTSASLAISGLRSEDEADYYCAAWDENLSGPVFGTGTKVTVLG
5 | binds | A05 (antibody, human IgG4, V domains shown) VH: EVQLLESGGGLVQPGGSLRLSCAASGFTFSVYSMNWVRQAPGKGLEWVSYIVPSGGNTPYADSVKGRFTISRDNSKNTLYLQMNSLRAEDTAVYYCARDGAATVDLDYWGQGTLVTVSS VL: DIQMTQSPSSLSLSPGERATLSCRASQSVSSYLAWYQQKPGQAPRLLIYDASNRATGIPARFSGSGSGTDFTLTISSLEPEDFAVYYCQQRSNWPRTFGGGTKVEIKR
6 | binds | A07 (antibody, human IgG4, V domains shown) VH: EVQLLESGGGLVQPGGSLRLSCAASGFTFSEYNMMWVRQAPGKGLEWVSVISPSGGGTLYADSVKGRFTISRDNSKNTLYLQMNSLRAEDTAVYYCARDLNNSSPPDSNDAFDIWGRGTMVTVSS VL: QSELTQPPSASGSPGQSVTISCTGTSSDVGGYNYVSWYQQHPDKAPKLLIYEVTQRPSGVPDRFSGSRSGNTASLTVSGLQAEDEADYYCSSYAGRNNLYVFGPGTKVTVLG
7 | binds | A08 (antibody, human IgG4, V domains shown) VH: EVQLLESGGGLVQPGGSLRLSCAASGFTFSVYDMPWVRQAPGKGLEWVSVIYPSGGFTRYADSVKGRFTISRDNSKNTLYLQMNSLRAEDTAVYYCAADPTIQLWAYYYGMDVWGQGTTVTVSS VL: QSVLTQPPSVSGTPGQRVTISCSGGYPNMGSNYAHWYQQLPGTAPKLLIYNDNQRPSGVPDRFSGSKSGTSASLAISGLRSEDEADYYCAAWDDSLSGPVFGGGTKLTVLG
8 | binds | A09 (antibody, human IgG4, V domains shown) VH: EVQLLESGGGLVQPGGSLRLSCAASGFTFSWYDMYWVRQAPGKGLEWVSSIYSSGGYTAYADSVKGRFTISRDNSKNTLYLQMNSLRAEDTAVYYCAKDRDPCSRTTCYNWFDPWGQGTLVTVSS VL: QSELTQPPSASGTPGQRVTISCSGGSSNIGSNFVYWYRQLPGTAPKLLIYRNYQRPSGVPDRFSGSKSGTSASLAISGLLSEDEADYYCAAWDDNVGGVFGSGTKVTVLG
9 | binds | A10 (antibody, human IgG4, V domains shown) VH: EVQLLESGGGLVQPGGSLRLSCAASGFTFSAYRMFWVRQAPGKGLEWVSSIWPSGGTTSYADSVKGRFTISRDNSKNTLYLQMNSLRAEDTAVYYCARDRGYDSSGYFDYWGQGTLVTVSS VL: QSELTQPPSASGTPGQRVTISCSGGSSNIGSNYVSWYQQLPGTAPKLLIYNNNQRPSGVPDRFSGSKSGTSASLAISGLRSEDEADYYCAAWDDSLSSAVFGGGTQLTVLG
10 | binds | A11 (antibody, human IgG4, V domains shown) VH: EVQLLESGGGLVQPGGSLRLSCAASGFTFSWYTMMWVRQAPGKGLEWVSRISPSGGHTLYADSVKGRFTISRDNSZNTLYLQMNSLRAEDTAVYYCARDTWDDYYDSSGYYNDFDYWGQGTLVTVSS VL: QSALTQPPSVSLAPGQTARITCGGNNIGTKSVHWYQQKPGQAPVLVVYDDSDRPSGIPERFSGSNSGNTATLTISRVEAGDEADYYCQVWDSGSDHQVFGGGTKLTVLG
11 | binds | A12 (antibody, human IgG4, V domains shown) VH: EVQLLESGGGLVQPGGSLRLSCAASGFTFSAYWMDWVRQAPGKGLEWVSVIYPSGGSTNYADSVKGRFTISRDNSKNTLYLQMNSLRAEDTAVYYCAREGIAAAAPMDVWGKGTTVTVSS VL: DIQMTQSPGTLSLSPGERATLSCRASQSVSRSYLGWYQQKPGQAPRLLIYGASNRATGIPDRFSGSGSGTDFTLTISRLEPEDFAVYYCQQYGISPLTFGPGTKVDIKR
12 | binds | B01 (antibody, human IgG4, V domains shown) VH: EVQLLESGGGLVQPGGSLRLSCAASGFTFSTYDMLWVRQAPGKGLEWVSSISPSGGSTSYADSVKGRFTISRDNSKNTLYLQLNSLRAEDTAVYYCAREKASDLSGTYSEALDHWGQGTLVTVSS VL: DIQMTQSPGTLSLSPGERATLSCRASQSVSSSYFAWYQQKPGQAPRLLIYDASSRATGIPDRFSGSGSGTDFTLTISRLEPEDFAVYYCQQYGSSPPMYTFGQGTKLEIKR
13 | binds | B06 (antibody, human IgG4, V domains shown) VH: EVQLLESGGGLVQPGGSLRLSCAASGFTFSQYFMKWVRQAPGKGLEWVSSISPSGGLTQYADSVKGRFTISRDNSKNTLYLQMNSLRAEDTAVYYCARGGIEAPGSPSDYWGQGTLVTVSS VL: DIQMTQSPSFLSASVGDRVTITCRASQGISSYLAWYQQKPGKAPKLLIYAASTLQSGVPSRFSGSGSGTDFTLTISSLEPEDFATYYCQESYSTPFFTFGPGTKVDIRR
14 | binds | B08 (antibody, human IgG4, V domains shown) VH: EVQLLESGGGLVQPGGSLRLSCAASGFTFSRYMMNWVRQAPGKGLEWVSVIWSSGGKTLYADSVKGRFTISRDNSKNTLYLQMKSLRAEDTAVYYCARGGYNNYYYSMDVWGQGTTVTVSS VL: QSELTQPHSVSGSPGKTVTISCTRSSGSIAGNYVQWYQQRPGSSPTTVIYEDNKRPSGVPDRFSGSIDSSSNSASLIISGLKTEDEADYYCHSYDTSNQVFGGGTKLTVLG
15 | binds | B11 (antibody, human IgG4, V domains shown) VH: EVQLLESGGGLVQPGGSLRLSCAASGFTFSPYFMFWVRQAPGKGLEWVSSIGSSGGDTSYADSVKGRFTISRDNSZNTLYLQMNSLRAEDTAVYYCARGLYRWGQGTLVTVSS VL: QSELTQPPSVSLAPGQTARITCGGNNIGTKSVHWYQQKPGQAPVLVVYDDSDRPSGIPERFSGSNSGNTATLTISRVEAGDEADYYCQVWDSGSDHQVFGGGTKLTVLG
16 | binds | C01 (antibody, human IgG4, V domains shown) VH: EVQLLESGGGLVQPGGSLRLSCAASGFTFSNYGMSWVRQAPGKGLEWVSVIGPSGGITMYADSVKGRFTISRDNSKNTLYLQMNSLRAEDTAVYYCATGSSSGWYPNFDYWGQGTLVTVSS VL: DIQMTQSPSTLSASVGDRVTITCRASQSIGNWLAWYQQKPGEAPHLLIYQASSLEGGVPSRFSGSGSGTKFTLNISSLQPDDFATYYCQQYNSYSYTFGQGTKLDIKR
17 | binds | C03 (antibody, human IgG4, V domains shown) VH: EVQLLESGGGLVQPGGSLRLSCAASGFTFSLYMMKWVRQAPGKGLEWVSVISSSGGYTQYADSVKGRFTISRDNSKNTLYLQMNNLRAEDTAVYYCARGWDVWGKGTTVTVSS VL: QSALTQPPSASGTPGQRVTISCSGSNSNIGGNIVIWLQQLPGTAPKLMIYDVSDRPSGVPDRFSGSKSGTSASLAISGLQSEDEADYYCAAWDDSLNGWVFGGGTKLTVLS
18 | binds | C05 (antibody, human IgG4, V domains shown) VH: EVQLLESGGGLVQPGGSLRLSCAASGFTFSSYQMDWVRQAPGKGLEWVSRIVPSGGDTTYADSVKGRFTISRDNSKNTLYLQMNSLRAEDTAVYYCARHVYYDSSDYFPNPFDYWGQGTLVTVSS VL: QSELTQPPSVSGTPGQRVTISCSGSSSNIGSEYVYWFQQLPGTAPRLLIYRNDQRPSGVPDRFSGSKSGTSASLAISGLRSEDETDYYCTTWDDSLSGPVFGGGTKLTVLG
19 | binds | C06 (antibody, human IgG4, V domains shown) VH: EVQLLESGGGLVQPGGSLRLSCAASGFTFSFYFMFWVRQAPGKGLEWVSYIGPSGGPTNYADSVKGRFTISRDNSKNTLYLQMNSLRAEDTAVYYCARHYPREYQLPGSFDPWGQGTLVTVSS VL: DIQMTQSPSSLSASVGDRVTITCRASQGISNYLAWYQQKPGKVPKLLIYPASTLQSGVPSRFSGSGSGTDFTLTISSLQPEDFATYYCQQADSFPPTFGGGTTVEIRR
20 | binds | C07 (antibody, human IgG4, V domains shown) VH: EVQLLESGGGLVQPGGSLRLSCAASGFTFSYYVMMWVRQAPGKGLEWVSVIRPSGGITTYADSVKGRFTISRDNSKNTLYLQTNSLRAEDTAVYYCAKIDYGGNSFYFDYWGQGTLVTVSS VL: DIQMTQSPSSLSASVGDRVTITCRASQSISNYLNWYQQRPGKAPKLLIYAASSLERGVPSRFSGSGSGTDFTLTISSLQSEDFATYYCQQSYSPPPLTFGGGTKLEIKR
21 | binds | C08 (antibody, human IgG4, V domains shown) VH: EVQLLESGGGLVQPGGSLRLSCAASGFTFSYYEMMWVRQAPGKGLEWVSSISPSGGPTMYADSVKGRFTISRDNSKNTLYLQMNSLRAEDTGVYYCARKMGRVGYCSSTSCYRDDYYGMDVWGQGTTVTVSS VL: DIQMTQSPPSLSALVGDRVTITCRASQSISRYVNWYQQKPGKAPKVLIYAASIVENGVPSRFSGSGSGTDFSLTISSLQPEDFATYYCQQTYSTPLTFGGGTKLAIKR
